According to publication doi:10.1101/2022.02.05.479199:
For at least one entry, the source does not settle the construct or the ends of the probe.

Legend:
[1] = test system: RPA-DBD-D-Cy3 + Rtt105-Cy5 (C13S); assay: stopped-flow FRET; conditions: preformed complex, remodeling kobs 3.3 s-1
[2] = test system: RPA-DBD-A-Cy3 + Rtt105-Cy5 (C13S); assay: stopped-flow FRET; conditions: preformed complex, remodeling kobs 0.62 s-1
RPA-DBD-D-Cy5 + Rtt105 = assay: stopped-flow FRET; conditions: with Rtt105, kobs 0.5, 48, 3.6 s-1, slower binding
[3] = test system: RPA-DBD-D-Cy5 (Saccharomyces cerevisiae); assay: stopped-flow FRET; conditions: no Rtt105, kobs 100.3, 16, 1.4 s-1
RPA-DBD-A-Cy5 + Rtt105 = assay: stopped-flow FRET; conditions: with Rtt105, kobs1 15, kobs2 1.9 s-1
[4] = test system: RPA-DBD-A-Cy5 (Saccharomyces cerevisiae); assay: stopped-flow FRET; conditions: no Rtt105, kobs1 18.2, kobs2 2.7 s-1
[5] = test system: RPA-DBD-A-Cy3 + RPA-DBD-D-Cy3; assay: FRET

Which results are given for “TTTTTTTTTTTTTTTTTTTTTTTTTTTTTTTTTTT [(dT)35]”?
binding result [1]: binds; binding result [2]: binds

Does “TTTTTTTTTTTTTTTTTTTTTTTTTTTTTTTTTTTTTTTT [3'-Cy3-(dT)40]” bind (RPA-DBD-D-Cy5 + Rtt105)?
Result: binds

Does “TTTTTTTTTTTTTTTTTTTTTTTTTTTTTTTTTTTTTTTT [3'-Cy3-(dT)40]” bind [3]?
Result: binds

Does “TTTTTTTTTTTTTTTTTTTTTTTTTTTTTTTTTTTTTTTT [5'-Cy3-(dT)40]” bind (RPA-DBD-A-Cy5 + Rtt105)?
Result: binds

Does “TTTTTTTTTTTTTTTTTTTTTTTTTTTTTTTTTTTTTTTT [5'-Cy3-(dT)40]” bind [4]?
Result: binds

Does “TTTTTTTTTTTTTTTTTTTTTTTTTTTTTTTTTTTTTTTTTTTTTTTTTTTTTTTTTTTTTTTTTTTTTTTTTTTTTTTTTTTTTTTTTTTTTTTTT [(dT)97]” bind [5]?
Result: binds
